# The list shows a part of the results.
# Amino acid sequences for entries named in this document (tags omitted). A change or cut given only in a name is not applied to a line headed by its entry.
# UniProt O75643, whole entry, looked up: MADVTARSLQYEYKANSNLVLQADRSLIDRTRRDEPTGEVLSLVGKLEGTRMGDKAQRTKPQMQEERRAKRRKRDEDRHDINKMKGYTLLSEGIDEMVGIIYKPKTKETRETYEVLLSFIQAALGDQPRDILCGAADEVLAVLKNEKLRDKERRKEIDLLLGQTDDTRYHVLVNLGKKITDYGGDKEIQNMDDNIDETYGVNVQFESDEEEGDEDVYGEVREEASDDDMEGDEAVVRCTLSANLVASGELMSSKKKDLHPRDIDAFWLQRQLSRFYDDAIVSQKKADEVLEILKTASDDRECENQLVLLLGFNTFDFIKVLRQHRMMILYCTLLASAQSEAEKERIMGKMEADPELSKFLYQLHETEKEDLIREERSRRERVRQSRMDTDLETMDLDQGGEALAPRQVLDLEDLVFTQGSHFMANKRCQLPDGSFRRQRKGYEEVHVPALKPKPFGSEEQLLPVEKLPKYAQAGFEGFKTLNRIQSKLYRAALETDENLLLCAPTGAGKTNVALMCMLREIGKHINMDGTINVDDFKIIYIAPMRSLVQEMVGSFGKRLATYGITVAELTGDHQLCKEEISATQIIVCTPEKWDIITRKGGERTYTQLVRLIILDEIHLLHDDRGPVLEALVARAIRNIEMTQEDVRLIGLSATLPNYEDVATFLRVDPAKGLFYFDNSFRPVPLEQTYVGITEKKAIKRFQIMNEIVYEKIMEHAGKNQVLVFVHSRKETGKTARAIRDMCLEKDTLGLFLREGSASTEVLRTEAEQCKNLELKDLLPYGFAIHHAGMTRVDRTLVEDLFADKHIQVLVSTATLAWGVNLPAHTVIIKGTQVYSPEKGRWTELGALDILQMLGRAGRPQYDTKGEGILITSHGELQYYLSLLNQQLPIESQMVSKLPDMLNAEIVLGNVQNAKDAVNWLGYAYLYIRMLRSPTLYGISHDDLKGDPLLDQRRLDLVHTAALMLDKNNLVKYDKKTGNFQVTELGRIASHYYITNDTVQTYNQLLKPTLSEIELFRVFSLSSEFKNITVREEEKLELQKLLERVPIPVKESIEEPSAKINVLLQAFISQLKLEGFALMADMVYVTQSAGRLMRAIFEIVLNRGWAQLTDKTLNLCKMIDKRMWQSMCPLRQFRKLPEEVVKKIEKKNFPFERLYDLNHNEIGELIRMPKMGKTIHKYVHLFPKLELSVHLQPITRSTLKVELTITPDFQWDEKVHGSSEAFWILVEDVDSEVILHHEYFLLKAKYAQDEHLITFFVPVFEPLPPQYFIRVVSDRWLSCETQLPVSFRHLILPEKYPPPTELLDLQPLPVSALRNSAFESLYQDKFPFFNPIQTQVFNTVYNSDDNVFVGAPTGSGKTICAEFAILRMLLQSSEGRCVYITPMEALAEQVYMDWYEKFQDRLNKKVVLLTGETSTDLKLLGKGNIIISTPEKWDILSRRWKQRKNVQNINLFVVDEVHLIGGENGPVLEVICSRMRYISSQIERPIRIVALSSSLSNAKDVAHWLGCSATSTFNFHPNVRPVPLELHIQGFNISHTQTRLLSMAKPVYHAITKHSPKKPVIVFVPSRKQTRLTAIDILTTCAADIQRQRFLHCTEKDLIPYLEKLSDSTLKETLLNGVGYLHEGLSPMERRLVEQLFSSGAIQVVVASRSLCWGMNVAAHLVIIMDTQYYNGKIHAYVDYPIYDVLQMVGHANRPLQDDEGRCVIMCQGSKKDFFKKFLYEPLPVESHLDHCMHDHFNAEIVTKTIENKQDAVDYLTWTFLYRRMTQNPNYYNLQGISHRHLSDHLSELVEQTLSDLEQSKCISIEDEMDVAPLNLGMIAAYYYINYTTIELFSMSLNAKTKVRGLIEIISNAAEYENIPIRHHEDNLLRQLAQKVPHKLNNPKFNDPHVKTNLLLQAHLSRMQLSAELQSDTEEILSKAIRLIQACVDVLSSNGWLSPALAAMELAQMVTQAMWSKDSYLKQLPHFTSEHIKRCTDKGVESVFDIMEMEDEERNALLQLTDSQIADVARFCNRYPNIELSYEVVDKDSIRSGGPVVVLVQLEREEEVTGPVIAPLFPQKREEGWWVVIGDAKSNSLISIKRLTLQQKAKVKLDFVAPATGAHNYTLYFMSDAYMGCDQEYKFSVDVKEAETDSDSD
# UniProt Q7Z7L1: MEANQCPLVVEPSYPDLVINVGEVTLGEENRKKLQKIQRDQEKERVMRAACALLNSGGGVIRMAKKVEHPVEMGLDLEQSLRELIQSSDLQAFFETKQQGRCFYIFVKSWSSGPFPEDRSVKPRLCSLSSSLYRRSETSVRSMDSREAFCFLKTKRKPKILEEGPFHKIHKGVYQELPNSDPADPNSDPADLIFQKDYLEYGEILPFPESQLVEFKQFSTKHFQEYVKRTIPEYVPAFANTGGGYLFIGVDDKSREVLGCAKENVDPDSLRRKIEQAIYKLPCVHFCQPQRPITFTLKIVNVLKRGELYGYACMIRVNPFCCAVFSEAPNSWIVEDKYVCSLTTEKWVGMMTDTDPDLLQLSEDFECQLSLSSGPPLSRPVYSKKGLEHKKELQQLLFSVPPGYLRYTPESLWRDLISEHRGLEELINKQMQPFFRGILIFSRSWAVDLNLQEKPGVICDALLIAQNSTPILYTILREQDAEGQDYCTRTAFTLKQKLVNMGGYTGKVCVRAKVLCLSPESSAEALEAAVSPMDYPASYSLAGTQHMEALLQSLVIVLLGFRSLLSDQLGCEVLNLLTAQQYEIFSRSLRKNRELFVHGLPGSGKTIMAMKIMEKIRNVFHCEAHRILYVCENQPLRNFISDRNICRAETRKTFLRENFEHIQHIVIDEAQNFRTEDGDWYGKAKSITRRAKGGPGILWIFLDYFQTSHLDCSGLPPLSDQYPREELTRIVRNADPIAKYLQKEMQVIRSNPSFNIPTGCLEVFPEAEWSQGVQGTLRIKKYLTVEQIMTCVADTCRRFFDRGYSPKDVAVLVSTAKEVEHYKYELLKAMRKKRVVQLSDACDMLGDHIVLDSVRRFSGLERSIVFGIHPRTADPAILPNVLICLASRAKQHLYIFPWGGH
# UniProt Q13485: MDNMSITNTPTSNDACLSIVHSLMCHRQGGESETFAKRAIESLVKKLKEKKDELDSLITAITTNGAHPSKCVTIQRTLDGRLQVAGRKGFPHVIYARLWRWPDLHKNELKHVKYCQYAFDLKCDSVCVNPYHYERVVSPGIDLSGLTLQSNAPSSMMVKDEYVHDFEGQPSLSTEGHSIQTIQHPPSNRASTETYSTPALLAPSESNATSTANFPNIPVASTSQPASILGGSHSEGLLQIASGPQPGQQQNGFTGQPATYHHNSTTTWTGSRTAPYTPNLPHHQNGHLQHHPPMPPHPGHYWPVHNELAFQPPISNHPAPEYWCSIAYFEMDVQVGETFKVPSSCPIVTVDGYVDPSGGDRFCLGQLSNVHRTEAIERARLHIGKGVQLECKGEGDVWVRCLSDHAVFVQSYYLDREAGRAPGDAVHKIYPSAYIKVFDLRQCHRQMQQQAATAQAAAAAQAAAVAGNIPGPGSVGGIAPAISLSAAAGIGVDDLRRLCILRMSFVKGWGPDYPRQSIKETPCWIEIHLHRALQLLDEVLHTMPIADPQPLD
# UniProt Q16637, whole entry, looked up: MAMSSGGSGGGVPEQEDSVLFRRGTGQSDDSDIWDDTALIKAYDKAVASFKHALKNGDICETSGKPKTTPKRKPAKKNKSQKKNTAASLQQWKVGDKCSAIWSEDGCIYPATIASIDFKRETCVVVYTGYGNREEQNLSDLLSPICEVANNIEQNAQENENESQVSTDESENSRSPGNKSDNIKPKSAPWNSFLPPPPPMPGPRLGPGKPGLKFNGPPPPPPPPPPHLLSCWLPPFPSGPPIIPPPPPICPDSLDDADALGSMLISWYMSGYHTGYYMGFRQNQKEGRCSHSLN
# UniProt O60906: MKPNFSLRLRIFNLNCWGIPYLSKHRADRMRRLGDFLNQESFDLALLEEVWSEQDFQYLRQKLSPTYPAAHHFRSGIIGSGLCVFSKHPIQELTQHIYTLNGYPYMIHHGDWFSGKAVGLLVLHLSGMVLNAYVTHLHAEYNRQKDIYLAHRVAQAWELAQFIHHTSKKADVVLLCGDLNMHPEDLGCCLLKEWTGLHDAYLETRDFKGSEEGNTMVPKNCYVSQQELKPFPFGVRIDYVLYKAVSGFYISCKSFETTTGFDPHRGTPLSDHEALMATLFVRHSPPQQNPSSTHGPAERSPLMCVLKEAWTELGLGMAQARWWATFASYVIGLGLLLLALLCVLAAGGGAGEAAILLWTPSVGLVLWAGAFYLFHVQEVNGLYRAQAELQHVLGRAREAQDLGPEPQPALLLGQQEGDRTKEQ
# UniProt Q8IY18: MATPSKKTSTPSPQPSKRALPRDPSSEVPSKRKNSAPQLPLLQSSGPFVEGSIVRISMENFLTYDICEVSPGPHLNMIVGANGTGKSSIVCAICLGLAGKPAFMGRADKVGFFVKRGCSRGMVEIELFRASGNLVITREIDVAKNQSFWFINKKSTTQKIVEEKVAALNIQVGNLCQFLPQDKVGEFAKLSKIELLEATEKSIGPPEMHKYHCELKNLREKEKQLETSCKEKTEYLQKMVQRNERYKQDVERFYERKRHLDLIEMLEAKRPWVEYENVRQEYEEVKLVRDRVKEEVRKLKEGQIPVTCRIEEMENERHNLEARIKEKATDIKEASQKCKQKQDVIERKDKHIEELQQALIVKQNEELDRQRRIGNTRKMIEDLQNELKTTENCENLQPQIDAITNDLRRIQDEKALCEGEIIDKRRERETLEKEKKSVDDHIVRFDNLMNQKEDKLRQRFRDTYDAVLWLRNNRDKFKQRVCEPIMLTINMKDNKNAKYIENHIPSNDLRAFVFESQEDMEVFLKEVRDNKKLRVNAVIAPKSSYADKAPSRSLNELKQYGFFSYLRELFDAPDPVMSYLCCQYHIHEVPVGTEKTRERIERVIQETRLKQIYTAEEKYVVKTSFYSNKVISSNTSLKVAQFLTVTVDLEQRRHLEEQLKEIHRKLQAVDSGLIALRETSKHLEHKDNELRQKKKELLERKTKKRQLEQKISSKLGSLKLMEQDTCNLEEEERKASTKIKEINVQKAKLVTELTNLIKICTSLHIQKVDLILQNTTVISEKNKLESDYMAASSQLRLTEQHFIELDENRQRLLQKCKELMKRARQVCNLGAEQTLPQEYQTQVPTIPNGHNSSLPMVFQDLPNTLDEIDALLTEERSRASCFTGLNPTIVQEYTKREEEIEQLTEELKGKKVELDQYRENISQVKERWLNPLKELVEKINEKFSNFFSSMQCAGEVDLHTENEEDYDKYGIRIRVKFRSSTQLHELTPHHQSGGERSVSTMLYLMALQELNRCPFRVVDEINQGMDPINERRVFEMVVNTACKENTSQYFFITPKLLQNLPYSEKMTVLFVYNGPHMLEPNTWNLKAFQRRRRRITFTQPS
# UniProt Q9BWU0: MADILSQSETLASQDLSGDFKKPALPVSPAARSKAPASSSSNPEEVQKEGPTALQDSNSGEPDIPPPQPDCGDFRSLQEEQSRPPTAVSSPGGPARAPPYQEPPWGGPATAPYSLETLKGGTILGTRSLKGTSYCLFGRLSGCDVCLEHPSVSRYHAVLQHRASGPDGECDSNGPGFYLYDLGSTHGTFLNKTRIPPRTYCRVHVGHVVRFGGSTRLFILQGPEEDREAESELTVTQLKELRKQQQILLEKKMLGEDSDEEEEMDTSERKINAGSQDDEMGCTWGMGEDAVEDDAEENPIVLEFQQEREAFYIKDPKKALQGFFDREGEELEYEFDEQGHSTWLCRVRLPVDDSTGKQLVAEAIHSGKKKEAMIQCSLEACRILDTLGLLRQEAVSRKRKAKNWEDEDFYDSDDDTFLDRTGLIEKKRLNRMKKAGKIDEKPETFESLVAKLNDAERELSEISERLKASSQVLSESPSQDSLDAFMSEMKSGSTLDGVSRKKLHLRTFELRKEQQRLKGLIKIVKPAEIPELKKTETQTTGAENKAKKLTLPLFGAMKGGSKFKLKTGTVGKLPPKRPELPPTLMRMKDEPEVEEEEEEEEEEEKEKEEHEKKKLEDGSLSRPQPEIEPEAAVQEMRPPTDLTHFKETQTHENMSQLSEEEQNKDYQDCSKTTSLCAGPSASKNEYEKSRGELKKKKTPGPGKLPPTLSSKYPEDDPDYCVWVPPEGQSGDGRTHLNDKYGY
# UniProt O75940: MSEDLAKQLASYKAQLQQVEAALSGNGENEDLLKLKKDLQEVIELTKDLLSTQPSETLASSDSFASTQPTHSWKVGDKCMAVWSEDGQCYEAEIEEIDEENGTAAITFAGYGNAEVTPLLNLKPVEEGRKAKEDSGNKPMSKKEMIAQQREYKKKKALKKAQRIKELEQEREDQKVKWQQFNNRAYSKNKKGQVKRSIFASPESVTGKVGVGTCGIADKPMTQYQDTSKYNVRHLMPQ
# Compound: CC1Cc2ccccc2N1C(=O)C1CCCN(C1)C(=O)CCl (mixture of isomers) [TRIM25 ligand 11 (diastereomer mixture)]
# Assay: probe-labelled cysteine peptide fold change vs DMSO (competition) (log2 fold change); higher = less target engagement (more negative = stronger competition)
# Conditions: 10 µM; THP-1; incubation time: 4 h
# 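Further: competitive chemoproteomic profiling in live THP-1 cells with an iodoacetamide desthiobiotin (IA-DTB) probe, comparing probe-labelled peptide intensities in compound-treated cells against DMSO-treated controls.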
row,Target,probe-labelled cysteine peptide fold change
1,SNRNP200_O75643_1127_RMWQSMCPLR (UniProt O75643),-0.0203
2,SNRNP200_O75643_1702+1706_CVIMCQGSK (UniProt O75643),-0.0143
3,SLFN11_Q7Z7L1_322_VNPFCCAVFSEAPNSWIVEDK (UniProt Q7Z7L1),0.661
4,SMAD4_Q13485_401_CLSDHAVFVQSYYLDR (UniProt Q13485),0.181
5,SMCHD1_A6NHR9_474_RPIFECFWNGR (UniProt A6NHR9),-0.00857
6,SMN2_Q16637_107_CSAIWSEDGCIYPATIASIDFKR (UniProt Q16637),-0.144
7,SMPD2_O60906_188_KADVVLLCGDLNMHPEDLGCCLLK (UniProt O60906),0.0765
8,SNRNP200_O75643_1278_VVSDRWLSCETQLPVSFR (UniProt O75643),-0.302
9,SMC5_Q8IY18_176_VAALNIQVGNLCQFLPQDK (UniProt Q8IY18),-0.0763
10,SLMAP_Q14BN4_286_SLSNTEDECTHLK (UniProt Q14BN4),-0.00489
11,SLC30A1_Q9Y6M5_390_CEDPTSYMEVAK (UniProt Q9Y6M5),-0.0949
12,SLC39A8_Q9C0K1_101_FSVICPAVLQQLNFHPCEDRPK (UniProt Q9C0K1),-0.108
13,SNRNP200_O75643_742_DMCLEK (UniProt O75643),0.0208
14,SMCHD1_A6NHR9_1445_DNDKEDGCFYFR (UniProt A6NHR9),-0.0116
15,SMG8_Q8ND04_611_STGACNCGR (UniProt Q8ND04),-0.00939
16,SLFN11_Q7Z7L1_884_TADPAILPNVLICLASR (UniProt Q7Z7L1),-0.233
17,SNRNP200_O75643_516_TNVALMCMLR (UniProt O75643),0.0159
18,SNRNP40_Q96DI7_168_GPQLVCTGSDDGTVK (UniProt Q96DI7),-0.0357

row,Target,probe-labelled cysteine peptide fold change
1,SLC7A7_Q9UM01_349_EGHLPDAICMIHVER (UniProt Q9UM01),0.0357
2,SMC1A_Q14683_523_LIDLCQPTQK (UniProt Q14683),-0.0272
3,SLC4A1AP_Q9BWU0_399_EGEELEYEFDEQGHSTWLCR (UniProt Q9BWU0),-0.0527
4,SLX4_Q8IY92_318_CLDEAEK (UniProt Q8IY92),-0.117
5,SMS_P52788_248_GDCYQVLIEDCIPVLK (UniProt P52788),0.0308
6,SLC4A1AP_Q9BWU0_200_LSGCDVCLEHPSVSR (UniProt Q9BWU0),0.136
7,SMC2_O95347_132_VQDLFCSVGLNVNNPHFLIMQGR (UniProt O95347),0.0533
8,SLFN11_Q7Z7L1_126_LCSLSSSLYR (UniProt Q7Z7L1),-0.127
9,SMU1_Q2TAY7_416_NPEHFVVCNR (UniProt Q2TAY7),-0.00322
10,SMNDC1_O75940_214_VGVGTCGIADKPMTQYQDTSK (UniProt O75940),-0.108
11,SMC5_Q8IY18_229_QLETSCK (UniProt Q8IY18),0.0413
12,SMC5_Q8IY18_582_ELFDAPDPVMSYLCCQYHIHEVPVGTEK (UniProt Q8IY18),0.00685
13,SMCHD1_A6NHR9_1823_DLLTFPDNVEHCETVFGMLLGDTIILDNLDAANHYR (UniProt A6NHR9),0.242
14,SLC3A2_P08195_431_WCSWSLSQAR (UniProt P08195),0.038
15,SMPD1_P17405_590_GHPPSEPCGTPCR (UniProt P17405),0.266
16,SMC4_Q9NTJ3_110_RFSCIIGPNGSGK (UniProt Q9NTJ3),-0.0655
17,SLFN13_Q68D06_286_LPIVHFCSSKPR (UniProt Q68D06),0.037
